Experimental data as given in patent US20120093789.

By UniProt entry, the sequences of proteins in these tests, tags left out.
UniProt P42582, whole entry: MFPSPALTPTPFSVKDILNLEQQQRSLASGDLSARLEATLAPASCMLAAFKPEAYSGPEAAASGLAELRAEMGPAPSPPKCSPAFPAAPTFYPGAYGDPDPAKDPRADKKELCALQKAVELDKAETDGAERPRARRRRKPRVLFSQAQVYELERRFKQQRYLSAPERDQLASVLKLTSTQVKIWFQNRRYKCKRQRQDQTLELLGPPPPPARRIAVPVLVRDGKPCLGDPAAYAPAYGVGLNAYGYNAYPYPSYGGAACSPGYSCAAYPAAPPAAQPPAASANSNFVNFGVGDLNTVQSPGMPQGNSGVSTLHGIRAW

Experiments:
[1] = system: SRF (serum response factor) with co-activator Myocd; test: activity in cells; conditions: protein in cells, protein details: expression vectors, Cos-1 cells, only the site is given
[2] = target: Nkx2.5 (UniProt P42582); test: activity in cells; conditions: protein in cells, protein details: expression vector, Cos-1 cells, only the site is given

Question: How did the “activity on this sequence” value ([1]; CArG mutation decreased Myocd-dependent luciferase activity) turn out when “GGGAGCAGCCTTGCTACCGCAGGGCAGGAGCCCC (double strand) [miR-143/145 enhancer SRF site, reporter mutant]” was run?
Answer: less active

Question: With “GGGAGCAGCCTTGCCATATAAGGGCAGGAGCCCC (double strand) [miR-143/145 enhancer SRF site, reporter WT]” as the sequence, how does the “activity on this sequence” value ([1]; luciferase, SRF weak alone, synergistic with Myocd, site within enhancer) read?
Answer: active

Question: With “GGGAAAGACTGCCAAGTGCTCGTGGCC (double strand) [miR-143/145 enhancer Nkx2.5 site WT]” as the sequence, how does the “activity on this sequence” value ([2]; Nkx2.5 independently activates enhancer luciferase reporter) read?
Answer: active

Question: With “GGGAAAGACTGCCGTGAGCTCGTGGCC (double strand) [miR-143/145 enhancer Nkx2.5 site mutant]” as the sequence, how does the “activity on this sequence” value ([2]; mutation of each binding site progressively decreased luciferase activity, variant of miR-143/145 enhancer Nkx2.5 site WT) read?
Answer: less active

A weaker result is weaker than the reference pair of the same experiment.
